# Results as given in PubChem BioAssay AID248 (DTP/NCI, 2004).
# The list is a part of this screen's results and no random one: it is rich in T/C values a quarter to a half above the control, in often repeated tests (any T/C) and in doses without a T/C. Other doses and runs of a compound stand elsewhere. T/C is the treated group as % of the vehicle group. Some doses have a count of surviving animals in place of a T/C: the source files T/C as zero there, which appears to mark a toxic dose or a test without result, not a measured value. Some survivor counts are full or nearly so, which does not show that the dose was tolerated: survival well below the control is almost never listed, so the zero probably covers shortened survival too. Counts of survivors are from the toxicity check (mostly the fifth day) where no day follows; animals may have died later. Schedule codes are those of the source, read here as Q, the interval in days (D) or hours (H), X, the number of doses. Some doses were run more than once; their values stand side by side, smallest first. Where survival is the endpoint, the PubChem record calls one and a half times the control and up active, and a quarter to a half above the control has no call in these data; cut-offs in other NCI protocols can differ. Some T/C values carry the count of animals alive at the toxicity check (mostly the fifth day); without a count, all were alive then.
# System: L1210 leukemia ip in BDF1 mice, survival T/C
# Assay: NCI In Vivo Anticancer Drug Screen. Data for tumor model L1210 Leukemia (intraperitoneal) in B6D2F1 (BDF1) mice
# Conditions: T/C endpoint: mean survival time, higher T/C = longer survival
# [1] = dose: 100.0 mg/kg/injection, schedule: Q01DX009 (ip), vehicle: saline with Tween-80
# [2] = dose: 150.0 mg/kg/injection, schedule: Q01DX001 (ip), vehicle: saline
# [3] = dose: 200.0 mg/kg/injection, schedule: Q01DX009 (ip), vehicle: saline with Tween-80
# [4] = dose: 300.0 mg/kg/injection, schedule: Q01DX001 (ip), vehicle: saline
# [5] = dose: 100.0 mg/kg/injection, schedule: Q01DX009 (ip), vehicle: saline
# [6] = dose: 200.0 mg/kg/injection, schedule: Q04DX003 (ip), vehicle: saline
# [7] = dose: 400.0 mg/kg/injection, schedule: Q04DX003 (ip), vehicle: saline
# [8] = dose: 400.0 mg/kg/injection, schedule: Q01DX001 (ip), vehicle: carboxymethylcellulose (CMC)
# [9] = dose: 400.0 mg/kg/injection, schedule: Q04DX003 (ip), vehicle: saline with Tween-80
# [10] = dose: 200.0 mg/kg/injection, schedule: Q04DX003 (ip), vehicle: saline with Tween-80
smiles,measurement,setting,value
O=[N+]([O-])c1ncn(C2CCCCO2)c1Br (stereo unspecified),survivor count,"dose: 400.0 mg/kg/injection, schedule: Q04DX003 (ip), vehicle: gum acacia",2 of 6
COC(C(C)C)[CH]1[Hg][O]C1=O (stereo unspecified),survivor count,"dose: 5.0 mg/kg/injection, schedule: Q01DX001 (ip), vehicle: steroid suspending solution",3 of 6
same,survivor count,"dose: 10.0 mg/kg/injection, schedule: Q01DX001 (ip), vehicle: steroid suspending solution",0 of 6
same,survivor count,"dose: 20.0 mg/kg/injection, schedule: Q01DX001 (ip), vehicle: steroid suspending solution",1 of 6
same,survivor count,"dose: 40.0 mg/kg/injection, schedule: Q01DX001 (ip), vehicle: steroid suspending solution",1 of 6
same,survivor count,"dose: 80.0 mg/kg/injection, schedule: Q01DX001 (ip), vehicle: steroid suspending solution",1 of 6
same,survivor count,"dose: 100.0 mg/kg/injection, schedule: Q01DX001 (ip), vehicle: steroid suspending solution",0 of 4
same,survivor count,"dose: 200.0 mg/kg/injection, schedule: Q01DX001 (ip), vehicle: steroid suspending solution",0 of 4
same,survivor count,"dose: 400.0 mg/kg/injection, schedule: Q01DX001 (ip), vehicle: steroid suspending solution",0 of 4
CNNC(=O)NC,survivor count,"dose: 200.0 mg/kg/injection, schedule: Q01DX009 (ip), vehicle: saline",0 of 6
O=[N+]([O-])/C=C/c1ccccc1Cl,survivor count,"dose: 40.0 mg/kg/injection, schedule: Q01DX009 (ip), vehicle: other",0 of 6
same,survivor count,[1],2 of 6
same,survivor count,"dose: 120.0 mg/kg/injection, schedule: Q04DX003 (ip), vehicle: other",4 of 6
same,survivor count,[2],3 of 6
same,survivor count,"dose: 150.0 mg/kg/injection, schedule: Q01DX009 (sc), vehicle: olive oil, sesame oil, peanut oil",1 of 6
same,survivor count,[3],0 of 6
same,survivor count,[4],0 of 6
ClCCN1CCOCC1,survivor count,[5],0 of 6
same,survivor count,[6],1 of 6
same,survivor count,[7],0 of 6
COc1nc(N)nc2c1ncn2C1OC(CO)C(O)C1O (stereo unspecified),survivor count,[4],0 of 6
CN(/N=C/c1ccccc1)C(=S)Nc1ccccc1,T/C,"dose: 125.0 mg/kg/injection, schedule: Q04DX003 (ip), vehicle: Klucel (hydroxypropylcellulose) (HPC)",133 % of control
O=C1OC(c2ccccc2)=N/C1=C\c1ccc2c(c1)OCO2,survivor count,[8],6 of 6
NC(=O)NN=C(CCl)CCl,survivor count,"dose: 400.0 mg/kg/injection, schedule: Q04DX002 (ip), vehicle: saline",0 of 3
Cc1ccc(C(=O)C(F)(F)F)cc1,survivor count,[9],2 of 6
COC1OC(COC(C)=O)C(OC(C)=O)C2C1N2C(N)=S (stereo unspecified),T/C,"dose: 200.0 mg/kg/injection, schedule: Q04DX002 (ip), vehicle: saline",125 % of control
O=C1C(Cl)=C(Nc2ccc3cn[nH]c3c2)C(=O)c2ccccc21,survivor count,[8],1 of 4
NC(=S)NN=C1CCCCC1,survivor count,"dose: 40.0 mg/kg/injection, schedule: Q01DX001 (ip), vehicle: carboxymethylcellulose (CMC)",1 of 4
same,survivor count,"dose: 80.0 mg/kg/injection, schedule: Q01DX001 (ip), vehicle: carboxymethylcellulose (CMC)",0 of 4
same,survivor count,[1],1 of 6
same,survivor count,[3],0 of 6
same,survivor count,"dose: 400.0 mg/kg/injection, schedule: Q01DX009 (ip), vehicle: saline with Tween-80",0 of 6
CC(CCF)C(N)C(=O)O (stereo unspecified),survivor count,"dose: 25.0 mg/kg/injection, schedule: Q01DX009 (ip), vehicle: saline",2 of 6
same,survivor count,"dose: 50.0 mg/kg/injection, schedule: Q01DX009 (ip), vehicle: saline",0 of 6
same,survivor count,"dose: 75.0 mg/kg/injection, schedule: Q01DX001 (ip), vehicle: saline",0 of 6
same,survivor count,"dose: 87.5 mg/kg/injection, schedule: Q01DX009 (ip), vehicle: saline",0 of 6
same,survivor count,[2],0 of 6
same,survivor count,"dose: 175.0 mg/kg/injection, schedule: Q01DX009 (ip), vehicle: saline",0 of 6
same,survivor count,"dose: 350.0 mg/kg/injection, schedule: Q01DX009 (ip), vehicle: saline",0 of 6
c1coc(-c2cnc3ccccc3n2)c1,survivor count,"dose: 300.0 mg/kg/injection, schedule: Q01DX001 (ip), vehicle: carboxymethylcellulose (CMC)",0 of 6
Cc1c(CBr)c2ccccc2[nH]c1=O,survivor count,"dose: 400.0 mg/kg/injection, schedule: Q01DX001 (ip), vehicle: other",0 of 4
CN(C)CCC(=O)c1cccc([N+](=O)[O-])c1,survivor count,"dose: 150.0 mg/kg/injection, schedule: Q01DX001 (ip), vehicle: other",0 of 7
same,survivor count,"dose: 300.0 mg/kg/injection, schedule: Q01DX001 (ip), vehicle: other",0 of 7
O=[N+]([O-])c1c(Br)sc(Br)c1[N+](=O)[O-],survivor count,"dose: 20.0 mg/kg/injection, schedule: Q04DX003 (ip), vehicle: Klucel (hydroxypropylcellulose) (HPC)",5 of 6
same,survivor count,"dose: 40.0 mg/kg/injection, schedule: Q04DX003 (ip), vehicle: Klucel (hydroxypropylcellulose) (HPC)",1 of 6
same,survivor count,"dose: 80.0 mg/kg/injection, schedule: Q04DX003 (ip), vehicle: Klucel (hydroxypropylcellulose) (HPC)",0 of 6
same,survivor count,"dose: 100.0 mg/kg/injection, schedule: Q04DX003 (ip), vehicle: Klucel (hydroxypropylcellulose) (HPC)",0 of 6
same,survivor count,"dose: 200.0 mg/kg/injection, schedule: Q04DX003 (ip), vehicle: Klucel (hydroxypropylcellulose) (HPC)",0 of 6
same,survivor count,"dose: 400.0 mg/kg/injection, schedule: Q04DX003 (ip), vehicle: Klucel (hydroxypropylcellulose) (HPC)",0 of 6
CCCCCCCCCCCCCCCCCC(=O)OCCOC(=O)CCCCCCCCCCCCCCCCC,survivor count,"dose: 400.0 mg/kg/injection, schedule: Q04DX002 (ip), vehicle: other",3 of 3
CCCCCCCCCCCCCCCCc1ccc(O)cc1O,survivor count,"dose: 150.0 mg/kg/injection, schedule: Q01DX009 (ip), vehicle: saline with Tween-80",1 of 6
same,survivor count,[10],2 of 6
same,survivor count,"dose: 225.0 mg/kg/injection, schedule: Q01DX009 (ip), vehicle: saline with Tween-80",2 of 6
same,survivor count,"dose: 335.0 mg/kg/injection, schedule: Q01DX009 (ip), vehicle: saline with Tween-80",1 of 6
same,survivor count,[9],1 of 6
N=C1SCc2ccccc21,survivor count,"dose: 200.0 mg/kg/injection, schedule: Q01DX009 (ip), vehicle: Klucel (hydroxypropylcellulose) (HPC)",3 of 6
same,survivor count,"dose: 400.0 mg/kg/injection, schedule: Q01DX009 (ip), vehicle: Klucel (hydroxypropylcellulose) (HPC)",0 of 6
[Co].[NH-]CC[N-]CCO.[NH-]CC[N-]CCO,survivor count,[5],1 of 6
same,survivor count,[6],4 of 6
same,survivor count,[7],0 of 6
NC(Cc1ccccc1)CC1CCC1 (stereo unspecified),survivor count,"dose: 100.0 mg/kg/injection, schedule: Q04DX003 (ip), vehicle: saline with Tween-80",2 of 6
same,survivor count,[10],1 of 6
same,survivor count,[9],0 of 6
CCCCCCCCCC(=O)N1CCCCC1C (stereo unspecified),T/C,"dose: 100.0 mg/kg/injection, schedule: Q04DX002 (ip), vehicle: carboxymethylcellulose (CMC)","94 [4 of 6 alive], 97, 100, 108 % of control"
O=C(O)CN(Cc1ccccc1)Sc1ccccc1[N+](=O)[O-],survivor count,"dose: 200.0 mg/kg/injection, schedule: Q01DX009 (ip), vehicle: other",3 of 6
same,survivor count,"dose: 300.0 mg/kg/injection, schedule: Q01DX009 (ip), vehicle: other",0 of 6
same,survivor count,"dose: 400.0 mg/kg/injection, schedule: Q04DX003 (ip), vehicle: other",1 of 6
CCCCc1cccc(N2C(N)=NC(N)=NC2(C)C)c1,survivor count,"dose: 100.0 mg/kg/injection, schedule: Q01DX001 (ip), vehicle: saline",1 of 6 and 2 of 6
same,survivor count,"dose: 200.0 mg/kg/injection, schedule: Q01DX001 (ip), vehicle: saline",0 of 6
same,survivor count,"dose: 400.0 mg/kg/injection, schedule: Q01DX001 (ip), vehicle: saline",0 of 6
CCCCCCCCCCCCCCCCCCNC(=O)Nc1cccc(OC)c1,survivor count,"dose: 100.0 mg/kg/injection, schedule: Q04DX002 (ip), vehicle: saline with Tween-80",3 of 3
